Measurements from patent publication US20240341171A1 (Semiconductor Energy Laboratory Co., Ltd., priority 2021, published 2024).
Some results were stated once for a whole list of compounds, not compound by compound.

Assay: Solubility test of PTCDI compounds (1 mg, solvent added in 1 mL steps, ultrasonic treatment, visual check)
Assay type: physicochemical
Conditions: for solvent [mL] THF: volume of tetrahydrofuran needed to dissolve 1 mg of compound
Procedure: In this example, a solubility test for a perylenetetracarboxylic diimide (PTCDI) compounds were performed.
First, 1 mg of each of the PTCDJ compounds represented by (a) to (d) were weighed out and added to transparent containers. Next, (1) 1 mL of a solvent was added, and then ultrasonic treatment was performed for 1 minute. After that, (2) whether the PTCDI compounds were dissolved in the solvents was checked visually.
In each PTCDI compound, aforementioned (1) and (2) were repeated until the PTCDI compounds were dissolved in the solvents. When a solution is colored in yellowish-orange and solids of materials disappear, the PTCDI compounds are regarded to be dissolved.

| SMILES | solvent [mL] CHCl3 (volume of chloroform needed to dissolve 1 mg of compound) [mL] | solvent [mL] THF [mL] |
| --- | --- | --- |
| CN1C(=O)c2ccc3c4ccc5c6c(ccc(c7ccc(c2c37)C1=O)c64)C(=O)N(C)C5=O | > 100 | > 100 |
| CCCCCCCCN1C(=O)c2ccc3c4ccc5c6c(ccc(c7ccc(c2c37)C1=O)c64)C(=O)N(CCCCCCCC)C5=O |  | > 100 |
